Test results: US6528620B1, “Sid-polyamide fusions: a potent method of regulating gene expression” (University of Utah Research Foundation, priority 1999, dated 2003)
No constants are given. Whether binding was seen depends on the method and setting. Some binding calls cover weakened binding; strength is not graded here.

Chains of the proteins cited; added tags and fusions are not shown. Lines headed by an entry give the natural chain unless they say otherwise; changes in a name come on top.
UniProt Q05195: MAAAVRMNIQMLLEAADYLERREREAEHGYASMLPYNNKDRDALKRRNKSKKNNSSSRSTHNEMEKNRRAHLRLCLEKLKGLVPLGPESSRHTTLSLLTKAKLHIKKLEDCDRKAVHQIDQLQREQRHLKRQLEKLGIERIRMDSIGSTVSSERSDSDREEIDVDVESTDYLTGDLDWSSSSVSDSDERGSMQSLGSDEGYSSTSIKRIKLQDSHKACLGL

Legend:
[1] = target: GST-PAH2, a GST fusion to the PAH2 domain of mSIN3A [GST: P08515]; test: far Western blot, probe purified under native conditions
[2] = target: GST-PAH2, a GST fusion to the PAH2 domain of mSIN3A [GST: P08515]; test: far Western blot: 35S-labelled probe on PVDF-immobilised GST-PAH2
[3] = target: GST-PAH2, a GST fusion to the PAH2 domain of mSIN3A [GST: P08515]; test: far Western blot, probe purified under denaturing conditions and renatured

binding [1]: binds | binding [2]: binds | binding [3]: binds
Substance: Mad1His (from UniProt Q05195 1-221)
